According to patent US20100216886A1, “POLYMORPHS OF N2-(1,1'-BIPHENYL-4-YLCARBONYL)-N1-[2-(4-FLUOROPHENYL)-1,1-DIMETHYLETHYL]-L-ALPHA-GLUTAMINE” (Wyeth, priority 2006, published 2010):

Assay: in vitro
Conditions: human, Caco-2, pH 7.4

Papp A→B: 1.3 ×10⁻⁶ cm/s
Papp B→A: 1.05 ×10⁻⁶ cm/s
SMILES: CC(C)NCC(O)COc1ccc(CC(N)=O)cc1 (centres unmarked) [Atenolol]
